Laboratory results published in the supplement of paper PMC8728848.
This is one part of the list.

Tests used:
Assay in all cases: glycan array binding signal (z-score within array); higher = stronger binding
Details in all cases: glycan notation: IUPAC condensed, linker removed
[1] = molecular target: Gal3S(b1-4)Glc
Procedure, shortened: (§1)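 Negative Z-scores can be read as non-binding. The Z-score is calculated within each array and then averaged across arrays of one protein sequence at different concentrations or buffers and across linkers. Arrays, 3228 in all, were curated from the Consortium for Functional Glycomics database and kept only where the protein sequence was available.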

[2] = molecular target: Gal3S(b1-4)Glc6S
Procedure, shortened: as §1

[3] = molecular target: Gal3S(b1-4)GlcNAc
Procedure, shortened: as §1

[4] = molecular target: Gal3S(b1-4)[Fuc(a1-3)]Glc6S
Procedure, shortened: as §1

[5] = molecular target: Gal3S(b1-4)[Fuc(a1-3)]GlcNAc
Procedure, shortened: as §1

[6] = molecular target: Gal3S(b1-4)[Fuc(a1-3)]GlcNAc6S
Procedure, shortened: as §1

[7] = molecular target: Gal3S4S(b1-4)GlcNAc
Procedure, shortened: as §1

[8] = molecular target: Gal3S6S(b1-4)GlcNAc
Procedure, shortened: as §1

[9] = molecular target: Gal3S6S(b1-4)GlcNAc6S
Procedure, shortened: as §1

[10] = molecular target: Gal4S(b1-4)GlcNAc
Procedure, shortened: as §1

[11] = molecular target: Gal4S6S(b1-4)GlcNAc
Procedure, shortened: as §1

[12] = molecular target: Gal6P(b1-4)GlcNAc
Procedure, shortened: as §1

[13] = molecular target: Gal6S(b1-3)GlcNAc
Procedure, shortened: as §1

[14] = molecular target: Gal6S(b1-3)GlcNAc6S
Procedure, shortened: as §1

[15] = molecular target: Gal6S(b1-4)Glc
Procedure, shortened: as §1

[16] = molecular target: Gal6S(b1-4)Glc6S
Procedure, shortened: as §1

[17] = molecular target: Gal6S(b1-4)GlcNAc
Procedure, shortened: as §1

[18] = molecular target: Gal6S(b1-4)GlcNAc6S
Procedure, shortened: as §1

[19] = molecular target: GalNAc(a1-3)Gal
Procedure, shortened: as §1

[20] = molecular target: GalNAc(a1-3)GalNAc
Procedure, shortened: as §1

[21] = molecular target: GalNAc(a1-3)GalNAc(a1-3)Gal(a1-4)Gal(b1-4)GlcNAc
Procedure, shortened: as §1

[22] = molecular target: GalNAc(a1-3)GalNAc(b1-3)Gal(a1-4)Gal(b1-4)Glc
Procedure, shortened: as §1

[23] = molecular target: GalNAc(b1-3)Gal
Procedure, shortened: as §1

[24] = molecular target: GalNAc(b1-3)Gal(a1-4)Gal(b1-4)GlcNAc
Procedure, shortened: as §1

[25] = molecular target: GalNAc(b1-3)Gal(a1-4)Gal(b1-4)GlcNAc(b1-3)Gal(b1-4)Glc
Procedure, shortened: as §1

[26] = molecular target: GalNAc(b1-3)Gal(a1-6)Gal(b1-4)Glc
Procedure, shortened: as §1

[27] = molecular target: GalNAc(b1-3)GalNAc
Procedure, shortened: as §1

[28] = molecular target: GalNAc(b1-3)GlcNAc
Procedure, shortened: as §1

[29] = molecular target: GalNAc(b1-4)Gal(b1-4)Glc
Procedure, shortened: as §1

[30] = molecular target: GalNAc(b1-4)GlcNAc
Procedure, shortened: as §1

[31] = molecular target: GalNAc(b1-4)GlcNAc(b1-2)Man
Procedure, shortened: as §1

[32] = molecular target: GalNAc(b1-4)GlcNAc(b1-2)Man(a1-3)[GalNAc(b1-4)GlcNAc(b1-2)Man(a1-6)]Man(b1-4)GlcNAc(b1-4)GlcNAc
Procedure, shortened: as §1

[33] = molecular target: GalNAc(b1-4)GlcNAc(b1-3)GalNAc(b1-4)GlcNAc
Procedure, shortened: as §1

[34] = molecular target: GalNAc(b1-4)GlcNAc6S
Procedure, shortened: as §1

[35] = molecular target: GalNAc(b1-6)GalNAc
Procedure, shortened: as §1

[36] = molecular target: GalNAc3S(b1-4)GlcNAc
Procedure, shortened: as §1

[37] = molecular target: GalNAc3S(b1-4)GlcNAc3S
Procedure, shortened: as §1

B1: SspB C123 (Streptococcus gordonii), Q54186 (protein)
chain: MAHFHYSSLLAQPQINKEIKNEDGVDIDRTLVAKQSIGKFELKTEALTAGRPKTTSFVLVDPLPTGYKFDLDATKAASTGFDTTYDEASHTVTFKATDETLATYNADLTKPVETLHPTVVGRVLNDGATYTNNFTLTVNDAYGIKSNVVRVTTPGKPNDPDNPNNNYIKPTKVNKNKEGLNIDGKEVLAGSTNYYELTWDLDQYKGDKSSKEAIQNGFYYVDDYPEEALDVRPDLVKVADEKGNQVSGVSVQQYDSLEAAPKKVQDLLKKANITVKGAFQLFSADNPEEFYKQYVSTGTSLVITDPMTVKSEFGKTGGKYENKAYQIDFGNGYATEVVVNNVPKITPKKDVTVSLDPTSENLDGQTVQLYQTFNYRLIGGFIPQNHSEELEDYSFVDDYDQAGDQYTGNYKTFSSLNLTMKDGSVIKAGTDLTSQTTAETDATNGIVTVRFKEDFLQKISLDSPFQAETYLQMRRIAIGTFENTYVNTVNKVAYASAAALEHHHHHH
- glycan array binding signal (z-score) [1]: 1.06
- glycan array binding signal (z-score) [2]: 0.314
- glycan array binding signal (z-score) [3]: 0.468
- glycan array binding signal (z-score) [4]: 5.71
- glycan array binding signal (z-score) [5]: 0.31
- glycan array binding signal (z-score) [6]: -0.848
- glycan array binding signal (z-score) [7]: -1.45
- glycan array binding signal (z-score) [8]: -0.215
- glycan array binding signal (z-score) [9]: 0.951
- glycan array binding signal (z-score) [10]: 0.608
- glycan array binding signal (z-score) [11]: -1.05
- glycan array binding signal (z-score) [12]: -0.314
- glycan array binding signal (z-score) [13]: -1.3
- glycan array binding signal (z-score) [14]: -1.61
- glycan array binding signal (z-score) [15]: 0.321
- glycan array binding signal (z-score) [16]: -0.505
- glycan array binding signal (z-score) [17]: -1.08
- glycan array binding signal (z-score) [18]: 1.05
- glycan array binding signal (z-score) [19]: 0.05
- glycan array binding signal (z-score) [20]: -0.525
- glycan array binding signal (z-score) [21]: -1.11
- glycan array binding signal (z-score) [22]: -0.693
- glycan array binding signal (z-score) [23]: -0.132
- glycan array binding signal (z-score) [24]: 2.25
- glycan array binding signal (z-score) [25]: -1.07
- glycan array binding signal (z-score) [26]: -0.455
- glycan array binding signal (z-score) [27]: 0.351
- glycan array binding signal (z-score) [28]: -0.14
- glycan array binding signal (z-score) [29]: 1.78
- glycan array binding signal (z-score) [30]: 0.637
- glycan array binding signal (z-score) [31]: -0.023
- glycan array binding signal (z-score) [32]: 1.55
- glycan array binding signal (z-score) [33]: -1.02
- glycan array binding signal (z-score) [34]: -0.246
- glycan array binding signal (z-score) [35]: 0.246
- glycan array binding signal (z-score) [36]: -0.617
- glycan array binding signal (z-score) [37]: -0.551
